This note sets out measurements from publication doi:10.1101/2024.09.05.611419.

By UniProt entry, the sequences of proteins in these tests, tags left out. Where a name states a change or a piece, a line headed by the entry shows the natural chain unless it says otherwise. Residues count along the entry.
UniProt P25586: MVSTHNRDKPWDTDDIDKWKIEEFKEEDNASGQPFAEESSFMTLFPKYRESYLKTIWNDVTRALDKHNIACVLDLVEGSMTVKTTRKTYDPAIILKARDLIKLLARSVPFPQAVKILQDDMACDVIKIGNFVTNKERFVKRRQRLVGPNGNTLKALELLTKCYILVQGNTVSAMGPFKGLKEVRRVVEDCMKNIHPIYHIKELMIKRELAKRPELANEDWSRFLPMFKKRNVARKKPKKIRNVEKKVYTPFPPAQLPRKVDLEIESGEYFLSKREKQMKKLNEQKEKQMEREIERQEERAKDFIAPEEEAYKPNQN
Krr1ΔC3-FLAG: residues 1-247 of P25586
UniProt P05756: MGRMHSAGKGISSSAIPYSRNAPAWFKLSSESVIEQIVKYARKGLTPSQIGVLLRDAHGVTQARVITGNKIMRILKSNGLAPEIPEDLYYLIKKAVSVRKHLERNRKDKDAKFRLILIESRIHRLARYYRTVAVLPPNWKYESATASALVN

These are yes or no findings as the source states them, for the method shown. For some assays here: Binding seen in cells or lysates may run through a third protein. Some entries that bind do so weakly or less than the wild type. For some assays here: Tags and fused reporters may be left off the sequences shown.

The target of assay [1] is Krr1ΔC3-FLAG (S. cerevisiae) (UniProt P25586). Description: co-sedimentation.
Assay [2] concerns the target T1, protA-TEV-tagged Utp23 (S. cerevisiae) (UniProt Q12339).
T1 sequence: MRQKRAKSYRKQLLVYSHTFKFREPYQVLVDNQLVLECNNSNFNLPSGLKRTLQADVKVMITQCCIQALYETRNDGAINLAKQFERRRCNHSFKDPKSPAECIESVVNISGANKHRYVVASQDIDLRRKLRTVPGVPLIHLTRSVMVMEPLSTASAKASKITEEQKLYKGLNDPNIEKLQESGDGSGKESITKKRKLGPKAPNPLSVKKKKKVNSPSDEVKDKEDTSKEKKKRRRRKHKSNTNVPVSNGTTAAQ
Description: co-sedimentation.

The target of assay [3] is Krr1 (wild type), second bait of the split-tag purification Utp23-Krr1 (S. cerevisiae) (UniProt P25586). As to the kind of experiment: co-sedimentation.
Assay [4] has as its target T2, protA-TEV-tagged Utp23 (S. cerevisiae), Q12339.
T2 chain: T1 sequence
As to the kind of experiment: co-sedimentation. The conditions noted are these: remark: other sources report otherwise.

The target in assay [5] is ribosomal protein uS15 (Rps13) (S. cerevisiae (endogenous in the yeast strains)) (UniProt P05756). Description: cryo-EM structure.
Assay [6] addresses T3, Gar1 (S. cerevisiae (endogenous in the yeast strains)) (UniProt P28007).
T3 sequence: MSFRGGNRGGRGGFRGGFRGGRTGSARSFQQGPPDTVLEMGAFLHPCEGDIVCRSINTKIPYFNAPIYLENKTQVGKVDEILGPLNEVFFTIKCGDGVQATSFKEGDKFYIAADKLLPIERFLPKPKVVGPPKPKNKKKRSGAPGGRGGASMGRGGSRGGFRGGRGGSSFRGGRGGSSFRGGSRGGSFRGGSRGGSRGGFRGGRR
Description: cryo-EM structure.

The target of assay [7] is T1, protA-TEV-tagged Utp23 (S. cerevisiae). As to the kind of experiment: cryo-EM structure.

B1: Nhp2 (protein, UniProt P32495 1-156)
chain: MGKDNKEHKESKESKTVDNYEARMPAVLPFAKPLASKKLNKKVLKTVKKASKAKNVKRGVKEVVKALRKGEKGLVVIAGDISPADVISHIPVLCEDHSVPYIFIPSKQDLGAAGATKRPTSVVFIVPGSNKKKDGKNKEEEYKESFNEVVKEVQAL
For B1, the binding result in assay [1], in assay [2] and in assay [3] was “binds” throughout.

B2: Mrd1 (protein, UniProt Q06106 1-887)
chain: MSRIIVKGLPVYLTDDNLREHFTKRLRQKHSHQAVNGSGPDLITDVKILRDRNGESRRFGFIGYRNEEDAFDAVEYFNGSFINTSKIEVSMAKSFADPRVPQPMKEKRREALKRFREKEEKLLQEENRKKKKVDENKHSNIDDEIRKNKQLQEFMETMKPSSQVTSWEKVGIDKSIEDEKLKREEEDSSVQGNSLLAHALALKEENNKDEAPNLVIENESDDEYSALNRNRDEDQEDAGEEEKMISISNLKDTDIGLVNDDANSDEKENEKRRNLAQDEKVSDLDWFKQRRVRIKESEAETREKSSSYATEQNESLDTKKEEQPERAVPQKTDEELAIEKINQTGRLFLRNILYTSKEEDFRKLFSPFGELEEVHVALDTRTGQSKGFAYVLFKDSKNAVNAYVELDKQIFQGRLLHILPGEEKKSHRLDEFDLKNMPLKKQKELKRKAAASRQTFSWNSLYMNQDAVLGSVAAKLGLEKSQLIDAENSSSAVKQALAEAHVIGDVRKYFESKGVDLTKFSQLKSTNQRDDKVILVKNFPFGTTREELGEMFLPYGKLERLLMPPAGTIAIVQFRDTTSARAAFTKLSYKRFKDGIIYLERGPKDCFTKPAEADDLINNTSAKEEENPVEVKPSSNDLMEANKDVTEGSSNAHDEDVIDGPTVSIFIKNLNFSTTNQNLTDRFKVFTGFVVAQVKTKPDPKHQGKTLSMGFGFVEFRTKEQANAVIAAMDGTVIDGHKIQLKLSHRQASQSGNTKTKSNKKSGKIIVKNLPFEATRKDVFELFNSFGQLKSVRVPKKFDKSARGFAFVEFLLPKEAENAMDQLHGVHLLGRRLVMQYAEEDAVDAEEEIARMTKKVRKQVATNEMAALRNGGGRKKLDVDDEENEGF
For B2, the binding result in assay [1] is “no binding”; in assay [2], “binds”; in assay [3], “binds”.

B3: Dhr1, Q04217 1-1267 (protein)
chain: MGTYRKRFNEKARSGHMAKLKELKRIRNKQFTRQDENDERVENPDSAPAESSTTEPNANAEILEPLTEEEKKMKKRKLQELFTPKESKVSRLKKKRLDKFIEHQLKREERKTIIGKLQDYKIDTSLLTSSKRLGEGRQTKKEEFKEALSLERQGRGNEQTNEILYEEYEPKVWDEYGEGGSSEDDDGEDDFEASFGSMPKPTDNEEKKSSGFIDHRPAKFGGSGLSFGFSNIKVINKESKTPKKKYNWRQRVEMEELKKHGKEDEMDFDTTSEDDDEEEDQEEEDKMHPSENPLEEVESADSETGSEKFDQNDVANEFKDWANQEIKKLEGRDQELVTPTLNIDYKPIIRKEDLDDGLQEAYVPINENSTRKAFYVEVSRSDEIQKARIQLPVFGEEHKIMEAIHHNDVVIICGETGSGKTTQVPQFLYEAGFGAEDSPDYPGMVGITQPRRVAAVSMAERVANELGDHGHKVGYQIRFDSTAKEDTKVKFMTDGVLLREMMHDFKLTKYSSIIIDEAHERNINTDILIGMLSRCVRLRAKLHKENPIEHKKLKLIIMSATLRVSDFSENKTLFPIAPPVLQVDARQFPVSIHFNRRTAFNYTDEAFRKTCKIHQKLPPGAILVFLTGQQEITHMVKRLRKEFPFKKNSKYNKDLETPVSKMGINSKTTDLEAEDIDFSVQVIDQDKFKSAIRYEEDEGNSGNGEDEEDEEEEGFEEVLTEGQTANDPLYVLPLYSLLPTKEQMRVFQKPPQGSRLCIVATNVAETSLTIPGVRYVVDSGRSKERKYNESNGVQSFEVGWVSKASANQRSGRAGRTGPGHCYRLYSSAVFEHDFEQFSKPEILRMPVESIVLQMKSMAIHNIINFPFPTPPDRVALSKAIQLLQYLGALDNKEMITEDGKKMSLFPLSPRFSKMLLVSDEKACLPYIVAIVSALSVGDPFINEFELGINEISRKPNPDENLDDKIREHDESTPGMDPELKKELRSKFYKSRSQFSKLDKFSDVFRLLSVVSAMDYVPKEQKEIFMKKNFLRGKLMEEIVKLRKQLMYIIKSNTSKENIAVVIRNEDLKSDIPSVIQIKLLKQMICAGFVDHVAVRADVLFPDDAKITNRTSIINIPYIPVLATRTPNIEDCFVYIHPTSILNNLGEMPPKYMLYYSLHLGGNNKTRMNTLCDIASTPLANIARKGLLLTYSKPLTGQGLKTVNLSPTERYCYVVPRFGSTVDNDLKIGWDLNPIAVHQKKQKGQWTVIKFITRKGFQTITGEEKEKK
For the molecule B3, the binding result in assay [4] is “binds”.

B4: Kri1 (protein, UniProt P42846 1-591)
chain: MPRKKSAAKRAREQAKKEAAVPATDTATIKTSETSATTVKPAIEASKSYVPSEDEEEDEEEEEEEDDYGELITDEVENGINQVLDAIKNNKTDKLLDPKVKFFEDPESAAAKLANREGKHKPIYLKDYHRMNILSGDALKEDDEEYEHATVDGKQSFVSQQREEKTQLLNEIKSAFSDEENEESSGDEDDGFLKKKEPSTKKEGKNLPDPTVNEENFLEEFVNQQAWIPKKGDKVISLDLNNNEEDDEEFEDAAEKFENAYNFRYEDPNAAEIISYARSQATLRRSDDSSRRRKREEKRKIKEQIKAEKETALQKKKTKKLNKLTDILEQLTKEYGAEINADMVKKITDTLLKNDFKEEEWDNVVAELFNEEFYQQEGKPTWNEDDEIMGDFYADADGDDQTEEGEVEKEQKEEDEEEGPKRKKSKKEEKLQKKKEKRKVNELVENALEQNKLALIEEVEKEEEERKSRSRTKEEQDLKFRYREVSPESFGLTAREIFAADDTDLNEFIGLKKFAPYRSKELRAKDKRKVMKARRLREWRKKTFKNENGLAPVEAEAGEKDEDTILIPVEKASKSKHKRGHSHKHKGHQKK
As for B4, the binding result in assay [5], in assay [6], in assay [7] and in assay [2] was “binds” each time.
